Assay: general procedure: Fmoc solid-phase peptide synthesis; Pre-loaded Fmoc-Yaa-Wang resin (0.57 mmol/g); TBTU/DIEA
[1] = late stage modification step, TFA salt

| Substance | step yield (coupling step) [%] | step yield [1] [%] |
| --- | --- | --- |
| Boc-Glu(Gly3)-Thia | 49 | – |
| Boc-Glu(Gly5)-Thia | 86 | – |
| H-Glu(Gly3)-Thia | – | 94 |
| H-Glu(Gly5)-Thia | – | 98 |

Source: patent publication US7368421B2 (Probiodrug AG, priority 2001, dated 2008)
